Experimental data: PMC10531095, “Photonics of Some Monomethine Cyanine Dyes in Solutions and in Complexes with Biomolecules” (International Journal of Molecular Sciences, 2023)

Assays:
dsDNA [1] = assay: Spectral fluorescent titration of the dyes with dsDNA in PBS; format: binding, chick; conditions: for εf/εb, relative change in molar extinction coefficient on complexation: PBS buffer
Excerpt: (§1) Complexation of MCD 1–4 with DNA (double-stranded and single-stranded) and with human serum albumin (HSA) was studied by spectral fluorescent methods in a wide range of biopolymer concentrations (cdsDNA = 0–1.5 × 10^−4 mol L^−1; cssDNA = 0–1.4 × 10^−4 mol L^−1; cHSA = 0–1.4 × 10^−4 mol L^−1 in PBS buffer). The absorption, fluorescence, and fluorescence excitation spectra of MCD 1 and 3 in the presence of dsDNA are shown in Figure 3 and Figure 4, respectively.
(§2) The complication of chemical equilibrium, and the variety of interactions between MCD and biopolymer (dye aggregation/deaggregation, the possibility of forming complexes of several types with DNA/HSA) makes it problematic to determine the exact values of the complexation constants of the dyes with DNA. The values of the effective equilibrium constants of the complexation reaction of MCD with biopolymers (Keff, L mol^−1, see Table 7) were estimated from spectral fluorescent data. In this case, we had to assume a simple equilibrium MCD (monomer, free) ⇄ MCD (monomer, bound). For these purposes, we used the Benesi–Hildebrand [59], Hill, and Scatchard formalisms (See Supplementary Materials, Equations (S9)–(S13)). For dsDNA, fitting according to the modified Scatchard equation was carried out assuming one dye molecule per one DNA turn (K1Sc at nSc = const = 10 b.p.), as well as varying both the constant (K2Sc) and the stoichiometric coefficient (nSc). In the case of ssDNA, nSc is given per one base; for HSA, nSc = 1.
Single-stranded form of DNA (single-stranded DNA; ssDNA) was obtained according to the method described in [74]. The concentrations of DNA and the dyes were controlled spectrophotometrically. Molar extinction coefficient of dsDNA (ε, L⋅mol^−1⋅cm^−1) was taken to be 13,200 L mol^−1 cm^−1 (per base pair); for ssDNA, ε = 9045 L mol^−1 cm^−1 (per one base) was used. For MCD 1 and 2 in an aqueous buffer solution, we used extinction coefficients ε = 40,000 and 68,000 L mol^−1 cm^−1, respectively, which were taken from. For MCD 3 and 4, the molar extinction coefficients in ethanol solution were 69,200 and 49,000 L mol^−1 cm^−1 (taken from). […] Spectral fluorescent characteristics of MCD in complexes with biomacromolecules were studied by titration of dye solutions (see Supplementary Materials). The thermal dissociation (“melting”) of dsDNA in the presence of MCD was studied spectrophotometrically (λabs = 260 nm), the sample was heated (t° = 30–95 °C) using Peltier cells, and the temperature was controlled using a thermocouple. Melting points tm, corresponding to 50% hyperchromia of DNA samples were obtained.
Absorption spectra were recorded on an SF-2000 spectrophotometer (Experimental-Construction Company “Spectrum”, St. Petersburg, Russia); fluorescence and fluorescence excitation spectra were recorded on a Fluorat-02-Panorama spectrofluorimeter (Group of Companies “Lumex”, St. Petersburg, Russia). The fluorescence and fluorescence excitation spectra were corrected for the spectral characteristics of the instrument (excitation channel signal) and sample transmission. Changes in the intrinsic fluorescence of HSA upon binding of MCD (in the presence of the dyes) were recorded in the synchronous fluorescence scanning (SFS) mode. In SFS mode, when registering spectra, a fixed difference Δλ= λfl − λex is maintained for the channels of excitation and registration. Synchronous scanning spectra were obtained at Δλ = 15 nm (fluorescence of tyrosine residues in the HSA molecule) and Δλ = 60 nm (fluorescence of tryptophan). The spectra were measured in 1 cm quartz semi-micro cells (Bio-Rad, Hercules, CA, USA).
The equilibrium constants of MCD complexation with biomolecules (Ka, L mol^−1) were obtained from fluorescence spectra using the Benesi–Hildebrand [59], Hill, and Scatchard equations [61] (see Supplementary Materials, Equations (S9)–(S13)). […]

dsDNA [2] = assay: Flash photolysis: triplet state of MCD in the presence of dsDNA; design: species or system chick; conditions: for ΦST, quantum yield of intersystem crossing to the triplet state: optical actinometry
Excerpt: Upon direct flash photoexcitation of deoxygenated solutions of MCD 1–4, signals corresponding to triplet–triplet (T–T) absorption were not observed due to the low efficiency of intersystem crossing to the triplet (T) state, in comparison with competing processes of nonradiative deactivation of excited states of dye molecules, which is common for MCD [41]. Complexation with dsDNA hinders these competing processes, which leads to an increase in the quantum yield of the T state of MCD. In the presence of dsDNA, under direct photoexcitation, the signals of T states of MCD 1–3 were detected, and their different T–T absorption spectra were measured (Figure 10).
Quantum yields of intersystem crossing to the triplet state (ΦST) of MCD 1–3 in the presence of dsDNA were estimated by flash photolysis using optical actinometry (see Materials and Methods). The obtained values of ΦST for MCD 1–3 were 2.6 ± 0.4%, 5.7 ± 0.8%, and 10.7 ± 1.5%, respectively.
The spectral–kinetic characteristics of the T state of MCD were studied by flash photolysis. The experiment was carried out on a setup with excitation by a xenon lamp (lamp flash energy ~50 J, duration τ1/2 = 10 μs). When registering T states, the solutions were deoxygenated using a vacuum setup. The manometric unit was used to determine the air pressure in a series of experiments on T state quenching by dissolved oxygen. The T state of MCD 4 in PBS solution in the presence of dsDNA was obtained by energy transfer from the triplet level of sodium naphthalene-2-sulfonate (ET~21,000 cm^−1 [83]). The quantum yields of T states (ΦT) of the dyes in the presence of dsDNA were estimated actinometrically. Dyes with known ΦT were used as actinometers: the xanthene dye Acid Red 87 (ΦT = 0.8 (aq); [84]) and the cyanine dye 3,3′-diethyl-9-methoxythiacarbocyanine iodide (ΦT = 0.16–0.20 in n-propanol; [85]).

ssDNA = assay: Spectral fluorescent titration of the dyes with ssDNA in PBS; format: binding, chick; conditions: for εf/εb, relative change in molar extinction coefficient on complexation: PBS buffer
Excerpt: as §1, §2
Single-stranded form of DNA (single-stranded DNA; ssDNA) was obtained according to the method described in [74]. The concentrations of DNA and the dyes were controlled spectrophotometrically. Molar extinction coefficient of dsDNA (ε, L⋅mol^−1⋅cm^−1) was taken to be 13,200 L mol^−1 cm^−1 (per base pair); for ssDNA, ε = 9045 L mol^−1 cm^−1 (per one base) was used. For MCD 1 and 2 in an aqueous buffer solution, we used extinction coefficients ε = 40,000 and 68,000 L mol^−1 cm^−1, respectively, which were taken from. For MCD 3 and 4, the molar extinction coefficients in ethanol solution were 69,200 and 49,000 L mol^−1 cm^−1 (taken from). […] Spectral fluorescent characteristics of MCD in complexes with biomacromolecules were studied by titration of dye solutions (see Supplementary Materials). […]
Absorption spectra were recorded on an SF-2000 spectrophotometer (Experimental-Construction Company “Spectrum”, St. Petersburg, Russia); fluorescence and fluorescence excitation spectra were recorded on a Fluorat-02-Panorama spectrofluorimeter (Group of Companies “Lumex”, St. Petersburg, Russia). The fluorescence and fluorescence excitation spectra were corrected for the spectral characteristics of the instrument (excitation channel signal) and sample transmission. Changes in the intrinsic fluorescence of HSA upon binding of MCD (in the presence of the dyes) were recorded in the synchronous fluorescence scanning (SFS) mode. […] Synchronous scanning spectra were obtained at Δλ = 15 nm (fluorescence of tyrosine residues in the HSA molecule) and Δλ = 60 nm (fluorescence of tryptophan). The spectra were measured in 1 cm quartz semi-micro cells (Bio-Rad, Hercules, CA, USA).
The equilibrium constants of MCD complexation with biomolecules (Ka, L mol^−1) were obtained from fluorescence spectra using the Benesi–Hildebrand [59], Hill, and Scatchard equations [61] […]

In the case of CC[N+](CC)(CC)CCC[n+]1ccc(/C=C2\Sc3ccccc3N2C)c2ccc(O)cc21 [MCD 1], the “LR, linear portion of fluorescence intensity vs. concentration plot” value (dsDNA [1]) is reported as 0 to 3 µmol/L, the “εf/εb, relative change in molar extinction coefficient on complexation” value (shortened to “εf/εb, relative change”) (dsDNA [1]) is reported as 1.05 and the “ΦST, quantum yield of intersystem crossing to the triplet state” value (dsDNA [2]) is reported as 2.6 ± 0.4%. For the same molecule, the “LR, linear portion of fluorescence intensity vs. concentration plot” value (ssDNA) was 0 to 3.5 µmol/L and the “εf/εb, relative change” value (ssDNA) was 1.73.
With CCN1/C(=C/c2sc3ccccc3[n+]2CC)Sc2ccccc21 [MCD 3] the “LR, linear portion of fluorescence intensity vs. concentration plot” value (dsDNA [1]) was 0 to 25 µmol/L, the “εf/εb, relative change” value (dsDNA [1]) was 3.90 and the “ΦST, quantum yield of intersystem crossing to the triplet state” value (dsDNA [2]) was 10.7 ± 1.5%. The “LR, linear portion of fluorescence intensity vs. concentration plot” value (ssDNA) was 0 to 10 µmol/L and the “εf/εb, relative change” value (ssDNA) was 2.88.
For CCN1/C(=C/c2ccc3ccccc3[n+]2CC)C=Cc2ccccc21 [MCD 4], the “LR, linear portion of fluorescence intensity vs. concentration plot” value (dsDNA [1]) was 1.5–13 ^2 µmol L^−1, the “εf/εb, relative change” value (dsDNA [1]) was 1.83 and the “signal of the T state upon direct photoexcitation” value (dsDNA [2]) was “not detected”. The “LR, linear portion of fluorescence intensity vs. concentration plot” value (ssDNA) was 1–140 ^2 µmol L^−1.
